# The list shows a part of the results. Shown are side measurements of this screen, not its main read-out; they come without a call. The list favours compounds with an active or inconclusive main result. Potencies come from curve fits of mixed quality, noted in brackets.
# Test: qHTS Assay for Lipid Storage Modulators in Drosophila S3 Cells;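 for cell number change: cells counted by Cell Tracker Red CMTPX staining in the red channel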
# Details: BODIPY lipid droplet fluorescence, 18-24 h; for cell number change: measured here: cell count max response, cells fed with added oleic acid
# Procedure, shortened: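 Drosophila S3 cells loaded with oleic acid (400 uM, as added) and compounds at several concentrations; lipid droplets imaged by 488-nm laser-scanning cytometry, 500–530 nm intensity and object ratio to cell channel. Percent activity normalized to 20 uM Triacsin C.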
# [1] = measured here: lipid fluorescence (Fed channel) AC50, cells fed with added oleic acid
# [2] = measured here: cell number channel AC50, cells fed with added oleic acid
SMILES,cell number change [%],AC50 [1],AC50 [2]
O=C(Nc1ccc(CN2CCOCC2)cc1)c1ccc(-c2ccc(Br)cc2)o1,-13.9,"0.58 µM [rising, single point]",–
COc1ccc(NC(=S)Nc2ccccn2)c(OC)c1,–,"2.59 µM [rising, partial curve]",–
Cc1ccc(S(=O)(=O)Oc2ccc(/C=N/NC(=O)c3nn(C)cc3[N+](=O)[O-])cc2)cc1,-18.3,"0.731 µM [falling, single point]","0.731 µM [falling, partial curve, poor fit]"
CN(C)C(=O)C(=O)c1cccn1-c1ccccc1C#N,7.39,"25.9 µM [falling, partial curve]","0.13 µM [falling, full curve, poor fit]"
O=C(C[n+]1ccccc1)Nc1ccc(Cl)c([N+](=O)[O-])c1,6.29,"0.116 µM [rising, full curve, poor fit]",–
O=C(NC(=S)N1CCc2ccccc21)c1ccc(Br)o1,98.5,–,"29.1 µM [rising, single point]"
O=C(Nc1ccc2c(c1)OCO2)C1CC(=O)N(c2ccc3c(c2)OCCO3)C1 (stereo not given),88.2,"20.6 µM [rising, partial curve]","13 µM [rising, partial curve, poor fit]"
Cn1c(CNC(=O)CNS(=O)(=O)c2ccc(F)cc2F)cc(=O)n(C)c1=O,23.7,"29.1 µM [rising, single point]",–
C=C(C)C1CC=C(C)/C(=N/NC(=O)COc2ccc(C)cc2)C1 (stereo not given),-39.8,"3.26 µM [falling, full curve]","3.26 µM [falling, full curve]"
Cc1ccc(CNC(=O)COc2ccccc2-c2ccccc2)cc1,25.3,"20.6 µM [rising, single point]",–
COc1ccc([C@H]2CC(=O)C=C(c3ccc4ccn(C)c4c3)C2)cc1,-16.3,–,"0.13 µM [falling, full curve, poor fit]"
COc1cccc(C2/C(=C(/O)c3ccncc3)C(=O)C(=O)N2CCCN(C)C)c1 (stereo not given),–,"0.0259 µM [falling, full curve, poor fit]",–
CCOc1cc(C)cc2oc(=O)cc(-c3ccccc3)c12,3,"29.1 µM [rising, single point]",–
CCOc1ccc(NC(=S)NC(C)C(c2ccccc2)N2CCN(C)CC2)cc1 (stereo not given),-34.9,"0.00461 µM [falling, full curve, poor fit]","0.0058 µM [falling, full curve, poor fit]"
CN1C(=O)N(C)C(c2ccccc2Cl)C2=C1CC(C)(C)CC2=O (stereo not given),-10.5,–,–
CC1CCCCN1C(=O)c1ccc(COc2ccc([N+](=O)[O-])cc2)o1 (stereo not given),-2.19,"13 µM [rising, partial curve, poor fit]",–
COc1ccc(C)cc1-n1nc2ccccc2n1,-42.7,–,–
O=C(Nc1cccc(Cl)c1)Nc1csc([N+](=O)[O-])c1,-61.4,"13 µM [falling, partial curve]","7.31 µM [falling, partial curve]"
CC1=NC(Nc2nc(C)c3ccccc3n2)=NC(C)(C)C1,22.6,"3.26 µM [rising, partial curve]","2.06 µM [rising, single point]"

# Structures above containing a furan ring, fused or not:
SMILES,cell number change [%],AC50 [1],AC50 [2]
O=C(Nc1ccc(CN2CCOCC2)cc1)c1ccc(-c2ccc(Br)cc2)o1,-13.9,"0.58 µM [rising, single point]",–
O=C(NC(=S)N1CCc2ccccc21)c1ccc(Br)o1,98.5,–,"29.1 µM [rising, single point]"
CC1CCCCN1C(=O)c1ccc(COc2ccc([N+](=O)[O-])cc2)o1 (stereo not given),-2.19,"13 µM [rising, partial curve, poor fit]",–

# (further entries)

SMILES,cell number change [%],AC50 [1],AC50 [2]
CCOC(=O)c1sc(=NC(=O)c2cc(OC)c(OC)c(OC)c2)n(C)c1C,–,–,"0.58 µM [falling, single point]"
Cc1ncc(CO)c(CNc2ccc(Oc3ccccc3)cc2)c1O,-16.2,–,–
CC(=O)c1c(C)[nH]c(C(=O)N2CCc3ccccc32)c1C,14.4,"3.26 µM [rising, partial curve]",–
CCOC(=O)CN(Cc1ccc(OC)c(OC)c1)S(=O)(=O)c1ccc(OC)cc1,68.2,"1.64 µM [rising, full curve]","1.64 µM [rising, full curve]"
N#Cc1cnn(Cc2ccc(Cl)cc2)c1N,–,"6.51 µM [rising, single point]",–
Cc1ccc(NC(=S)N(CCCN2CCC(C)CC2)Cc2ccco2)cc1C,18.4,"18.4 µM [rising, single point]",–
COc1cc(NC(=O)CSc2nc(C)cs2)cc(OC)c1,–,"0.58 µM [falling, single point]",–
Cc1cccc(C(C)C)c1NC(=O)c1c(-c2ccccc2)noc1C,–,"6.51 µM [rising, single point]",–
O=C(O)c1ccc(Cn2c(SCc3cc(=O)n4cc(Br)ccc4n3)nc3ccsc3c2=O)cc1,–,"5.8 µM [rising, partial curve]",–
COc1ccc(NCC(=O)N/N=C2\CCc3ccccc32)cc1,82.8,"2.91 µM [rising, full curve]","2.06 µM [rising, full curve]"
CCN1C(=O)/C(=C\c2cn(-c3ccccc3)nc2-c2cccnc2)SC1=S,–,"0.116 µM [rising, single point]",–
CCOC(=O)C1=C(C)NC(=O)NC1c1cc(Br)c(O)c(OC)c1 (stereo not given),–,"0.0651 µM [falling, full curve, poor fit]",–
COc1ccc(C)cc1N(CC(=O)NC1CCCC1)C(=O)CCC(=O)Nc1nc(C)cs1,15,"25.9 µM [falling, single point]",–
CCOc1ccc(N2C(=O)CC(NCCc3c[nH]c4ccccc34)C2=O)cc1 (stereo not given),-41.7,–,–
COc1ccc(CNC(=O)CN(Cc2ccccc2Cl)C(=O)c2csnn2)cc1,-21.8,"0.058 µM [falling, partial curve, poor fit]",–
CC1=C(C(=O)OC(C)C)C(C)C(C(=O)OC(C)C)=C(C)N1,-10.4,"2.31 µM [rising, partial curve]",–
c1ccc(-c2ccc(CN3CCSCC3)cc2)cc1,-37.5,–,"29.1 µM [falling, single point]"
NS(=O)(=O)c1ccc(CCNC(=O)c2ccc(NC3=NC4CS(=O)(=O)CC4S3)cc2)cc1 (stereo not given),29.5,"20.6 µM [rising, partial curve]",–
